{"source": "patent US8158790B2", "about": "“Cyclic amine compound” (Daiichi Sankyo Company, Limited, priority 2006, dated 2012)", "note": "Some of these results come from one statement about several compounds together. At least one compound was matched to its structure with a doubt left."}
{"molecular_target": "T1, human renin (Homo sapiens, UniProt P00797)", "T1 construct": "made in house; host or cells: 293T cells, transient expression; the conditioned medium was used unpurified and treated with trypsin", "T1 sequence (P00797 67-406)": "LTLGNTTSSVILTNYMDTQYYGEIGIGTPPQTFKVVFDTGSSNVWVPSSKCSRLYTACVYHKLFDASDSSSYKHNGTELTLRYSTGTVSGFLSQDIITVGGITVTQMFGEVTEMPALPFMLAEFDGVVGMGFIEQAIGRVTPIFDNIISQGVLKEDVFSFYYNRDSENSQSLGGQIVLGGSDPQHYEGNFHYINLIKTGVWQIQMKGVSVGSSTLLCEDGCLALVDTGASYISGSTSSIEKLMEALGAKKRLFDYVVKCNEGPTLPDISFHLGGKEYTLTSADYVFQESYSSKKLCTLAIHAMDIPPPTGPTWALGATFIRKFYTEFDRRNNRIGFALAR", "assay": "Renin inhibitory activity test, Method 2 (fluorescence-labeled synthetic renin substrate)", "format": "biochemical", "conditions": "concentration inhibiting 50% of angiotensin I generation, incubation at 37° C. for 90 minutes", "units": {"IC50": "nM"}}
{"molecule": "CC(C)CNC(=O)[C@@H](C[C@H](O)[C@@H](N)CN1CC(=O)N(c2cc(F)ccc2Cl)CC1(C)C)C(C)C", "note": "[Example 63, (2S,4S,5S)-5-Amino-6-[4-(2-chloro-5-fluorophenyl)-2,2-dimethyl-5-oxopiperazin-1-yl]-4-hydroxy-2-isopropylhexanoic acid isobutylamide hemifumarate]", "IC50": "≤ 100"}
{"molecule": "Cc1ccc(F)cc1N1CC(C)(C)N(C[C@H](N)[C@@H](O)C[C@@H](C)C(=O)NC2CCCCC2)CC1=O", "note": "[Example 105, (2R,4S,5S)-5-Amino-6-[2,2-dimethyl-4-(5-fluoro-2-methylphenyl)-5-oxopiperazin-1-yl]-4-hydroxy-2-methylhexanoic acid cyclohexylamide hemifumarate]", "IC50": "≤ 100"}
{"molecule": "C[C@H](C[C@H](O)[C@@H](N)CN1CC(=O)N(c2c(F)cccc2F)CC1(C)C)C(=O)NC1CCCCC1", "note": "[Example 95, (2R,4S,5S)-5-Amino-6-[4-(2,6-difluorophenyl)-2,2-dimethyl-5-oxopiperazin-1-yl]-4-hydroxy-2-methylhexanoic acid cyclohexylamide hemifumarate]", "IC50": "≤ 100"}
{"molecule": "(2S,4S,5S)-5-Amino-6-[4-(2-chlorophenyl)-2,2-dimethyl-5-oxopiperazin-1-yl]-4-hydroxy-2-isopropylhexanoic acid (2-carbamoyl-2-methylpropyl)amide hemifumarate [Example 1]", "IC50": "≤ 100"}
{"molecule": "(2S,4S,5S)-5-Amino-4-hydroxy-2-isopropyl-6-{4-[2-(3-methoxypropoxy)phenyl]-2,2-dimethylpiperazin-1-yl}hexanoic acid (2-carbamoyl-2-methylpropyl)amide fumarate [Example 29]", "IC50": "≤ 100"}
{"molecule": "(2R,4S,5S)-5-Amino-6-[2,2-dimethyl-4-(5-fluoro-2-methylphenyl)-5-oxopiperazin-1-yl]-4-hydroxy-2-propylhexanoic acid isobutylamide hemifumarate [Example 120]", "IC50": "≤ 100"}
{"molecule": "Cc1ccc(F)cc1N1CC(C)(C)N(C[C@H](N)[C@@H](O)C[C@@H](C)C(=O)NC2CCCC2)CC1=O", "note": "[Example 104, (2R,4S,5S)-5-Amino-6-[2,2-dimethyl-4-(5-fluoro-2-methylphenyl)-5-oxopiperazin-1-yl]-4-hydroxy-2-methylhexanoic acid cyclopentylamide hemifumarate]", "IC50": "≤ 100"}
{"molecule": "CC(C)[C@H](C[C@H](O)[C@@H](N)CN1CC(=O)N(c2c(F)cccc2F)CC1(C)C)C(=O)NCC(C)(C)C(N)=O", "note": "[Example 22, (2S,4S,5S)-5-Amino-6-[4-(2,6-difluorophenyl)-2,2-dimethyl-5-oxopiperazin-1-yl]-4-hydroxy-2-isopropylhexanoic acid (2-carbamoyl-2-methylpropyl)amide hemifumarate]", "IC50": "≤ 100"}
{"molecule": "C[C@H](C[C@H](O)[C@@H](N)CN1CC(=O)N(c2c(F)cccc2F)CC1(C)C)C(=O)NC1CCCC1", "note": "[Example 94, (2R,4S,5S)-5-Amino-6-[4-(2,6-difluorophenyl)-2,2-dimethyl-5-oxopiperazin-1-yl]-4-hydroxy-2-methylhexanoic acid cyclopentylamide hemifumarate]", "IC50": "≤ 100"}
